Data reported in PubChem BioAssay (EPA / NIEHS).
“And” between values parts separate entries of the source, which are not always exact repeats. Equal values may be shown once. The shares of active, inactive and inconclusive entries below differ from those in the screen. Where the call is inconclusive, the potency comes from a doubtful curve fit. Some structures have more than one record in an assay (separate samples or runs), and their calls can disagree. The source made the active and inactive calls. How the source made its calls: active means hit-call score of the fitted dose curve at least 0.9, where 1 is the maximum; inconclusive means response in the unintended direction; inactive means score below 0.9.

Sequences of proteins named here, by UniProt entry; tags and fusion partners are left off. A change or cut given only in a name is not applied to a line headed by its entry.
UniProt P03372, whole entry, looked up: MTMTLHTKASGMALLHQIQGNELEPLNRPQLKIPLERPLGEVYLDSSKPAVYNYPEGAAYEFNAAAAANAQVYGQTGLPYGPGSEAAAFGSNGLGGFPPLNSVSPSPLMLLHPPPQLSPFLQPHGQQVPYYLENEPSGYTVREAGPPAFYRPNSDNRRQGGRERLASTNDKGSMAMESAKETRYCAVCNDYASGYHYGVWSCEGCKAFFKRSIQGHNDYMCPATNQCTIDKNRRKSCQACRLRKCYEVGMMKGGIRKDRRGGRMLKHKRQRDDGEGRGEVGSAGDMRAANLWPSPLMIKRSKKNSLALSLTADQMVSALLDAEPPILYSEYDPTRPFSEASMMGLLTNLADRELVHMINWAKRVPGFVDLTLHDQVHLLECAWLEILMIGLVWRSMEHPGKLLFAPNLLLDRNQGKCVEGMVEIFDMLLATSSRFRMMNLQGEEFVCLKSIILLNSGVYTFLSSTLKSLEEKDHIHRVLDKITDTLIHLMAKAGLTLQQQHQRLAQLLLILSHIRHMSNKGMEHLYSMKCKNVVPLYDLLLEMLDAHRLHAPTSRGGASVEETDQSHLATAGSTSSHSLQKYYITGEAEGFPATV
UniProt Q92731, whole entry, looked up: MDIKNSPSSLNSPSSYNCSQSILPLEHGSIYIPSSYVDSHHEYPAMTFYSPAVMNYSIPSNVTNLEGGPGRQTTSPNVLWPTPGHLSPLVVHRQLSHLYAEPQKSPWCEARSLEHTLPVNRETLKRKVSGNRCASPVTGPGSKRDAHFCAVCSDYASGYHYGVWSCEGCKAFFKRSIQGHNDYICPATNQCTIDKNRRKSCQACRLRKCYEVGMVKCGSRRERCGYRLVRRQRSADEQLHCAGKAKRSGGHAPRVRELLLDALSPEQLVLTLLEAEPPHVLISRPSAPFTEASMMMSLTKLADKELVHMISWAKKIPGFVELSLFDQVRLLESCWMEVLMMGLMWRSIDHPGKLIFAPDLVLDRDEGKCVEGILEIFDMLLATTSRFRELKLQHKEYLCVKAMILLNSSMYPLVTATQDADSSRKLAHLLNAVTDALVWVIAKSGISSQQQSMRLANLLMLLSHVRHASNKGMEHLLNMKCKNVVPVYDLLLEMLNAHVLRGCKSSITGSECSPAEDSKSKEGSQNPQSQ
UniProt P22199: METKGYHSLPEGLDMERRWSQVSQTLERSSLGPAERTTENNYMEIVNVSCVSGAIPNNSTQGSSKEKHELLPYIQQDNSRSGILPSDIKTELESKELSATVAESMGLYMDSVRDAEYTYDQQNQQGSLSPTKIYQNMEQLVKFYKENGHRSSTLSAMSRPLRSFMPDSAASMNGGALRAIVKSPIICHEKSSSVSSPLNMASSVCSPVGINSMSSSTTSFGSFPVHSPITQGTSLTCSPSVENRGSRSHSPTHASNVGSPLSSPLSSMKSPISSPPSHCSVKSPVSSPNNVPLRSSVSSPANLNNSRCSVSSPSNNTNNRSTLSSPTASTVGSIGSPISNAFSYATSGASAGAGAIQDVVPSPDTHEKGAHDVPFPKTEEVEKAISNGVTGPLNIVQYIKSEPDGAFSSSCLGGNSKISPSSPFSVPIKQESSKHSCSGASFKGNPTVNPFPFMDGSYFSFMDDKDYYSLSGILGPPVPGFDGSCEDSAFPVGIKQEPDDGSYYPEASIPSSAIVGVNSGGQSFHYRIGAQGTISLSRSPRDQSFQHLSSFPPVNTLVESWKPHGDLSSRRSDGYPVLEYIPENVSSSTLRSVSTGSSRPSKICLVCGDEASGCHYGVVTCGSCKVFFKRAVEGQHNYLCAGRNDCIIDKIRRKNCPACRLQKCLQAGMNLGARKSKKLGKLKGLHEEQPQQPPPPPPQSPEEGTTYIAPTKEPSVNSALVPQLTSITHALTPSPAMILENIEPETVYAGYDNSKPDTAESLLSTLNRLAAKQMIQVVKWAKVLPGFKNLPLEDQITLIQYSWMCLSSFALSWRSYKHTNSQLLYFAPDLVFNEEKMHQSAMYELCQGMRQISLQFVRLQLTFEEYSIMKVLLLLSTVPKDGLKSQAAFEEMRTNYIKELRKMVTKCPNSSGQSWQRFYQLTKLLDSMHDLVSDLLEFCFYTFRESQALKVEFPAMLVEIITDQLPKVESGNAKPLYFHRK

molecular target: T1, Estrogen receptor (Homo sapiens) + Estrogen receptor beta (Homo sapiens) (UniProt P03372+Q92731); assay: OT_ER_ERaERb_0480: Odyssey Thera (OT) 8-hour HEK293T Protein-Complementation Assay for Estrogen Receptor-alpha/-beta Heterodimer (AID 2283352)
How it was run: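 Compound added to HEK293T cells carrying split-reporter-tagged ER-alpha and ER-beta LBDs, incubated 8 hours, then imaged by laser scanning cytometer. Signal rise in nucleus, or nucleus and cytoplasm, over vehicle was fitted in the positive direction.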

| Structure (SMILES) | AC50 | outcome |
| --- | --- | --- |
| CCCCCCCCCCCCCCOS(=O)(=O)O | inconclusive: 2.77 µM | – |
| NS(=O)(=O)c1cc2c(cc1Cl)NCNS2(=O)=O | – | inactive |
| CCOC(=O)c1ccccc1 | inconclusive: 87 µM | – |
| Cc1cccc(O)c1 | – | inactive |
| CCCCCCCCCc1ccc(OCCO)cc1 | active: 4.81 µM | – |
| O=C(O)CO | inconclusive: 50 µM | – |
| CCCc1ccc(OC)cc1 | – | inactive |
| CC(C)CCCCCCc1ccc(O)cc1 | active: 1.36 µM and active: 1.78 µM and active: 1.89 µM | – |
| CCCCCCCCn1sc(Cl)c(Cl)c1=O | inconclusive: 22.7 µM | – |
| Cc1c(C)c2c(c(C)c1O)CCC(C)(COc1ccc(CC3SC(=O)NC3=O)cc1)O2 (stereo not drawn) | inconclusive: 50 µM | – |
| CCCCCCCOC(=O)c1ccc(O)cc1 | active: 5.32 µM | – |
| CN(C)CCCN(C)CCCN(C)C | inconclusive: 50 µM | – |
| O=C1C(N(CO)C(=O)NCO)N(CO)C(=O)N1CO (stereo not drawn) | inconclusive: 37.2 µM | – |
| C[C@]12C=CC(=O)C=C1CC[C@@H]1[C@@H]2C(=O)C[C@@]2(C)[C@H]1CC[C@]2(O)C(=O)CO | inconclusive: 50 µM | – |
| CC1=C(C)S(=O)(=O)CCS1(=O)=O | inconclusive: 50 µM | – |
| CCCCCCCC/C=C\CCCCCCCC(=O)O | inconclusive: 50 µM | – |
| CCCCCCCC(=O)OC | inconclusive: 0.0302 µM | – |
| c1ccc2[nH]c(-c3cscn3)nc2c1 | inconclusive: 50 µM | – |
| CCN(CC)C(=O)c1cc(S(=O)(=O)Cc2ccccc2)c(N2CCC(c3ccccc3)CC2)cc1N(CC)CCN(C)C | inconclusive: 19 µM | – |
| CC[C@H]1CC[C@H](NCc2cc3c(cc2OC)[C@H]2C[C@H]2C(=O)N3C)[C@H](c2ccccc2)N1 | inconclusive: 50 µM | – |

Part of the list above, tab-delimited.
Structure (SMILES)	AC50	outcome
Cc1cccc(O)c1	–	inactive
CCCCCCCCCc1ccc(OCCO)cc1	active: 4.81 µM	–
O=C(O)CO	inconclusive: 50 µM	–
CCCc1ccc(OC)cc1	–	inactive

Shown field by field: entries from further up.
CCCCCCCCn1sc(Cl)c(Cl)c1=O
  AC50: inconclusive: 22.7 µM
Cc1c(C)c2c(c(C)c1O)CCC(C)(COc1ccc(CC3SC(=O)NC3=O)cc1)O2 (stereo not drawn)
  AC50: inconclusive: 50 µM

More compounds.

| Structure (SMILES) | AC50 | outcome |
| --- | --- | --- |
| CCc1ccccc1O | – | inactive |
| CCCCOC(=O)[C@@H](C)Oc1ccc(Oc2ccc(C(F)(F)F)cn2)cc1 | – | inactive |
| C=C1C[C@H]2[C@@H]3C=C(C)C4=CC(=O)CC[C@]4(C)[C@H]3CC[C@]2(C)[C@@]1(OC(C)=O)C(C)=O | inconclusive: 31.5 µM | – |
| OC1CCC(C2CCCCC2)CC1 (stereo not drawn) | active: 50 µM and active: 34.5 µM and active: 48.7 µM | – |
| Cc1cc(Cc2cc(C)cc(C(C)(C)C)c2O)c(O)c(C(C)(C)C)c1 | inconclusive: 14.5 µM | – |
| O=Cc1ccccc1C=O | inconclusive: 19.1 µM | – |
| CC/C=C\C/C=C\C/C=C\CCCCCCCC(=O)O | – | inactive |
| CNC(=O)[C@H]1O[C@@H](n2cnc3c(NCc4cc(Cl)ccc4OCc4cc(C)no4)ncnc32)[C@H](O)[C@@H]1N | – | inactive |
| O=C1CN(N=Cc2ccc([N+](=O)[O-])o2)C(=O)N1 | inconclusive: 50 µM | – |
| CCCCCCCCCCCC(=O)N(C)CC(=O)O | inconclusive: 48.8 µM | – |
| NCc1cccc(C2CCN(C(=O)c3ccc(C#Cc4ccccc4F)o3)CC2)c1 | inconclusive: 17.8 µM | – |
| ClC1=C(Cl)C(Cl)(Cl)C(Cl)=C1Cl | inconclusive: 31 µM | – |
| CC(=O)OC(C)C | inconclusive: 50 µM | – |
| N#CSCSc1nc2ccccc2s1 | inconclusive: 7.09 µM | – |
| CN1CCN(c2ccccc2/C=C2\SCCN(c3ccc(Cl)c(Cl)c3)C2=O)CC1 | inconclusive: 27.4 µM | – |
| COc1ccc2sc(C(=O)Nc3nnn[nH]3)c(OC(C)C)c2c1 | – | inactive |
| CC(C)(C)c1ccc(OC(=O)c2ccccc2O)cc1 | active: 58.9 µM | – |
| CCCCCCCCO[C@@H]1O[C@H](CO)[C@@H](O)[C@H](O)[C@H]1O | inconclusive: 50 µM | – |
| O=Nc1ccc(Nc2ccccc2)cc1 | inconclusive: 25 µM | – |
| OC[C@H]1O[C@@H](O[C@H]2[C@H](O)[C@@H](O)[C@H](O)O[C@@H]2CO)[C@H](O)[C@@H](O)[C@H]1O | inconclusive: 50 µM | – |

molecular target: rat Mineralocorticoid Receptor (MR), Nr3c2 (gene 25672) (UniProt P22199); assay: NVS_NR_rMR: NovaScreen (NVS) Nuclear Receptor Binding Assay for rat Mineralocorticoid Receptor (MR) (AID 2283355)
How it was run: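 Radioligand displacement, scintillation readout; tissue source adrenalectomized rat brain supernatant. Read 24 h post-dose. Screened in duplicate at 25 uM, DMSO negative control, controls on every plate; actives re-run in concentration series.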

| Structure (SMILES) | AC50 |
| --- | --- |
| C[C@]12C=CC(=O)C=C1CC[C@@H]1[C@@H]2C(=O)C[C@@]2(C)[C@H]1CC[C@]2(O)C(=O)CO | active: 178 nM |
| C=C1C[C@H]2[C@@H]3C=C(C)C4=CC(=O)CC[C@]4(C)[C@H]3CC[C@]2(C)[C@@]1(OC(C)=O)C(C)=O | inconclusive: 4.91 nM |
| OC1CCC(C2CCCCC2)CC1 (stereo not drawn) | inconclusive: 2.29 nM |

molecular target: T1, Estrogen receptor (Homo sapiens) + Estrogen receptor beta (Homo sapiens); assay: OT_ER_ERaERb_1440: Odyssey Thera (OT) 24-hour HEK293T Protein-Complementation Assay for Estrogen Receptor-alpha/-beta Homodimer (AID 2283356);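 further: heteromer of ER alpha and ER beta binding domains; hits raise reporter fluorescence and both agonists and antagonists give an increase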
How it was run: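 Stable HEK293T PCA line, ERα LBD 310-547 + ERβ LBD 263-489 fused to reporter fragments; 24 h treatment; fluorescence read by laser scanning cytometry; positive fitting direction relative to DMSO.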

| Structure (SMILES) | AC50 |
| --- | --- |
| CCCCCCCCCc1ccc(OCCO)cc1 | active: 4.94 µM |
| CCCCCCCCn1sc(Cl)c(Cl)c1=O | inconclusive: 50 µM |
| C[C@]12C=CC(=O)C=C1CC[C@@H]1[C@@H]2C(=O)C[C@@]2(C)[C@H]1CC[C@]2(O)C(=O)CO | inconclusive: 50 µM |
| CC1=C(C)S(=O)(=O)CCS1(=O)=O | inconclusive: 73.7 µM |
| CCCCCCCC/C=C\CCCCCCCC(=O)O | inconclusive: 50 µM |
| CCN(CC)C(=O)c1cc(S(=O)(=O)Cc2ccccc2)c(N2CCC(c3ccccc3)CC2)cc1N(CC)CCN(C)C | inconclusive: 34.1 µM |
| O=C1CN(N=Cc2ccc([N+](=O)[O-])o2)C(=O)N1 | inconclusive: 18.7 µM |
| NCc1cccc(C2CCN(C(=O)c3ccc(C#Cc4ccccc4F)o3)CC2)c1 | inconclusive: 25.8 µM |
| ClC1=C(Cl)C(Cl)(Cl)C(Cl)=C1Cl | inconclusive: 27.4 µM |
| CN1CCN(c2ccccc2/C=C2\SCCN(c3ccc(Cl)c(Cl)c3)C2=O)CC1 | inconclusive: 50 µM |
